± gives the standard deviation of the averaged measurements. Only a part is listed here, and it is no random draw. Most values lie at the level of the controls, where differences are scatter.
Compound: Nc1ncnc2c1ncn2[C@@H]1O[C@H](COP(=O)(O)OP(=O)(O)NP(=O)(O)O)[C@@H](O)[C@H]1O [adenylyl imidodiphosphate]
Assay: NP40-soluble protein abundance relative to vehicle (solubility fold change) (ratio); higher = more soluble protein in presence of AMP-PNP
Conditions: concentration: 0.1mM
In short: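 Eight concentrations, 0.1 to 10 mM, were tested on Jurkat crude lysate for 10 min at room temperature and then 3 min at 37 °C, in three independent experiments. The lysate was solubilised with 0.8% NP40 and benzonase, ultracentrifuged, and the supernatant TMT-labelled for LC-MS/MS. Each value is the fold change against the detergent-processed vehicle in its own replicate, from vsn-normalised intensities.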

Protein sequences, listed by entry. Tags and fused reporters are not part of them. Lines headed by an entry give the natural chain unless they say otherwise; changes in a name come on top.
UniProt Q9UPT8: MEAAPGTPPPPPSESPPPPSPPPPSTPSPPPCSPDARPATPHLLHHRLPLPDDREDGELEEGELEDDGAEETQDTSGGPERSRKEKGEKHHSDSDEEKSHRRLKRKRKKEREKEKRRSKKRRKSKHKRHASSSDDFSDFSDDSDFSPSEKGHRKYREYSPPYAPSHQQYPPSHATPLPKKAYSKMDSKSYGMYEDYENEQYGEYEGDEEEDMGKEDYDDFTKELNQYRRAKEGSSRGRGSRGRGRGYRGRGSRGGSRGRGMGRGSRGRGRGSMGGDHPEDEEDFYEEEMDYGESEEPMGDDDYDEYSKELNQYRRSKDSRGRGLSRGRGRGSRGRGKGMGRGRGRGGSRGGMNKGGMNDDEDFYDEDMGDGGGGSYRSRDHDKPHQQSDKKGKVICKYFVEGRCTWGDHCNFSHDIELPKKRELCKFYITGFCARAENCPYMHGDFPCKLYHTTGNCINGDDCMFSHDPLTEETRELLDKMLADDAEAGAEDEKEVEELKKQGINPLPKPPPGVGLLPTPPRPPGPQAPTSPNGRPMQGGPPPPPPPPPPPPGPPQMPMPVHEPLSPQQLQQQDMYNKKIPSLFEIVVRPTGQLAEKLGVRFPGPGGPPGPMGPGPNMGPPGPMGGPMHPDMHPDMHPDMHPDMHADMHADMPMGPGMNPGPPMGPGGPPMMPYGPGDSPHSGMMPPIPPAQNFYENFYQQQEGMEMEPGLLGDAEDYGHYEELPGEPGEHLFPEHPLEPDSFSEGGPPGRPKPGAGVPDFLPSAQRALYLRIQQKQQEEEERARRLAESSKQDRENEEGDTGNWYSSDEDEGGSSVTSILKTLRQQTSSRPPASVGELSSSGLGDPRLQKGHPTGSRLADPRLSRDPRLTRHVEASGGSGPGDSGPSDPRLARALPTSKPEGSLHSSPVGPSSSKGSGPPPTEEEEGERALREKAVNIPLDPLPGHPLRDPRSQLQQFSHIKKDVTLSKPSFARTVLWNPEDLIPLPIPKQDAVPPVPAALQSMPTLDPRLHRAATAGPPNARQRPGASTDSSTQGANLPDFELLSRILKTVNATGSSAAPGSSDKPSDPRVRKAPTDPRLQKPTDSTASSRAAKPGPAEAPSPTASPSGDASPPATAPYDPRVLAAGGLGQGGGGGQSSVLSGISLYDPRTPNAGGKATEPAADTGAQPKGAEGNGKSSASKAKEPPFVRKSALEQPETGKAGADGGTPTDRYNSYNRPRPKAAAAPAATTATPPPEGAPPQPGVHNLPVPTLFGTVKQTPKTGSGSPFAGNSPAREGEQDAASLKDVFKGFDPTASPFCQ
UniProt Q9UID3: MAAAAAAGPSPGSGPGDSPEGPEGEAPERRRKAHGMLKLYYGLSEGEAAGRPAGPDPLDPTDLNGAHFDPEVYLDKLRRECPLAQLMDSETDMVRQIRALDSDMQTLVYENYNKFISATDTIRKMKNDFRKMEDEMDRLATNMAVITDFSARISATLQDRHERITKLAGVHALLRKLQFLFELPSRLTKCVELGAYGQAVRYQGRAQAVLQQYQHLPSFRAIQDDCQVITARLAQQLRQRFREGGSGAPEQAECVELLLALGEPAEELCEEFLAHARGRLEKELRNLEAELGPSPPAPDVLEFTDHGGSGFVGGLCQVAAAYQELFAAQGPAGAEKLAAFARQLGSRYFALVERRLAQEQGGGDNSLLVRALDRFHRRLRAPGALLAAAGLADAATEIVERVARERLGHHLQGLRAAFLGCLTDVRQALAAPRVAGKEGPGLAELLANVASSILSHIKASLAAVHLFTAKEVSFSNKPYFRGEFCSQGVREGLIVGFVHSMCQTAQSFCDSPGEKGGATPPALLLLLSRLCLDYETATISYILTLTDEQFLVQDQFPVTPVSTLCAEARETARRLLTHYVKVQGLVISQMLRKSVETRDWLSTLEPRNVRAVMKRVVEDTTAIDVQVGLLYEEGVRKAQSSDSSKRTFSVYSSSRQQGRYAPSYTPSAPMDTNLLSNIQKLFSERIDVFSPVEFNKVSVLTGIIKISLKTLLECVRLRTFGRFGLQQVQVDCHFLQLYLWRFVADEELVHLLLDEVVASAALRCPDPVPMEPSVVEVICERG
UniProt Q9Y3C6: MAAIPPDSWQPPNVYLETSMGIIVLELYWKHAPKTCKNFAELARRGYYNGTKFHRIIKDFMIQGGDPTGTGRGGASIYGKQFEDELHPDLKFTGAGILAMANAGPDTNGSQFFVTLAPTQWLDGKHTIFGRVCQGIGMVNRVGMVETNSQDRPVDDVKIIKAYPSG
UniProt Q9Y228: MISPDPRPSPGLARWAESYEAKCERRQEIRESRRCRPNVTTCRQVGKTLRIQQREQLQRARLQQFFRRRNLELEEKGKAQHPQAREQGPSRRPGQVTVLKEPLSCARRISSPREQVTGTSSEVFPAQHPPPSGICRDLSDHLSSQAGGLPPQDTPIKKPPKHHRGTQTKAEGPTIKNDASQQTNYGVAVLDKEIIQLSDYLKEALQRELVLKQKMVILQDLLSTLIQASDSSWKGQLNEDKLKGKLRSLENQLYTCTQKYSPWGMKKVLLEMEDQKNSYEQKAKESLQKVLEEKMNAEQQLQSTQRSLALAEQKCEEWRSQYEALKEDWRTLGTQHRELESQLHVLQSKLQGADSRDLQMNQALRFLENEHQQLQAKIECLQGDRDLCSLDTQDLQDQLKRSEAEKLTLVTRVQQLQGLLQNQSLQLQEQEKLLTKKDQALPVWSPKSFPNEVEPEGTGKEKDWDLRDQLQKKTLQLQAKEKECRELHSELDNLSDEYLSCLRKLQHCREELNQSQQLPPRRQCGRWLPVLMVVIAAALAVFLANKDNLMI
UniProt Q9UIM3: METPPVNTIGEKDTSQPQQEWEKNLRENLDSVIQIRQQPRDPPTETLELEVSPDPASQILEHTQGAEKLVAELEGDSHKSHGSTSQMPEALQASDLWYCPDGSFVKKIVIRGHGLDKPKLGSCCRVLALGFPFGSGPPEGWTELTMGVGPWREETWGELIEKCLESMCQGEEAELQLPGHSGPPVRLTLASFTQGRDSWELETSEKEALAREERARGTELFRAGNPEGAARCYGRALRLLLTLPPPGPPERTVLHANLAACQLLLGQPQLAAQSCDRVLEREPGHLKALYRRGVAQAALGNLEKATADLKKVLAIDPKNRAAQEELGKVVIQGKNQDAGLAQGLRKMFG
UniProt Q9UQ80: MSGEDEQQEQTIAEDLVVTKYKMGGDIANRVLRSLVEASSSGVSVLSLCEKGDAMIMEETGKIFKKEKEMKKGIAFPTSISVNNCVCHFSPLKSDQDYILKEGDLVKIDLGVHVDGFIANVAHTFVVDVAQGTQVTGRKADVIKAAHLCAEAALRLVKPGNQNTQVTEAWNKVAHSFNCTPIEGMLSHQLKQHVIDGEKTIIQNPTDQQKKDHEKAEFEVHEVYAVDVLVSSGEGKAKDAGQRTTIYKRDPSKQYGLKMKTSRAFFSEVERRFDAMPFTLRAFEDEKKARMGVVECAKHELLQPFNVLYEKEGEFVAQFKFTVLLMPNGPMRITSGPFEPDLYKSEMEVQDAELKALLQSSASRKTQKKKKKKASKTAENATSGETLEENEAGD
UniProt Q9UIB8: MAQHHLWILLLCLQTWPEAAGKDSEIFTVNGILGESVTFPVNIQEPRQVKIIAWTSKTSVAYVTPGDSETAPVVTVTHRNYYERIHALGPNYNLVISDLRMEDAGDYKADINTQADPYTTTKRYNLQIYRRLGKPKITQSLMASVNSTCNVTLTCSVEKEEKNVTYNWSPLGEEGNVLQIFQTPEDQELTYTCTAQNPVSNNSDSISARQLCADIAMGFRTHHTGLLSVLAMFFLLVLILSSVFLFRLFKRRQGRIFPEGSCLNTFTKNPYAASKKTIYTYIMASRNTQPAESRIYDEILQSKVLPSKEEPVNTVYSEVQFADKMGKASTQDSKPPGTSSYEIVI
UniProt Q9ULF5: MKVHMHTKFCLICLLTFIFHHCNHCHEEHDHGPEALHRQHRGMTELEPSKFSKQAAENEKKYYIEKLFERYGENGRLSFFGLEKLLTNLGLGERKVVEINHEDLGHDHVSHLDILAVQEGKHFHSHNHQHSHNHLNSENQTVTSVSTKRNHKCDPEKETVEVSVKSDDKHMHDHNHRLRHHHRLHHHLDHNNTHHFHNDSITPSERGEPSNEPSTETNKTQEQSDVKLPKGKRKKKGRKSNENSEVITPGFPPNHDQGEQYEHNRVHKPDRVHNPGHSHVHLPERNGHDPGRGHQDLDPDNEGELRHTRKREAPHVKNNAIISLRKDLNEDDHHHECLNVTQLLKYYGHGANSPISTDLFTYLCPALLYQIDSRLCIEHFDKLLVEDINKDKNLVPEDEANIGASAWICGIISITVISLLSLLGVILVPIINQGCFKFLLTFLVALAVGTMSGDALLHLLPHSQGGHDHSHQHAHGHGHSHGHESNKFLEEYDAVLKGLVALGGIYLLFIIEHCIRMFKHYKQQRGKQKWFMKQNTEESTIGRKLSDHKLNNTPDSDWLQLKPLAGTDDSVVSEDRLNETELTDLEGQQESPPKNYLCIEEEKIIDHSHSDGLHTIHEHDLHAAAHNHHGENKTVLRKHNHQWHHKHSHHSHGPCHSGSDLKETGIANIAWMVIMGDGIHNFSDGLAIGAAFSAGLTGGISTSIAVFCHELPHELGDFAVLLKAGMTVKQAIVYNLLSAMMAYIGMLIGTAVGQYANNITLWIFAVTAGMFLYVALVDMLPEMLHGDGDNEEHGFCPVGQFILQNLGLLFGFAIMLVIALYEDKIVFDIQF
UniProt Q9UJU2, whole entry: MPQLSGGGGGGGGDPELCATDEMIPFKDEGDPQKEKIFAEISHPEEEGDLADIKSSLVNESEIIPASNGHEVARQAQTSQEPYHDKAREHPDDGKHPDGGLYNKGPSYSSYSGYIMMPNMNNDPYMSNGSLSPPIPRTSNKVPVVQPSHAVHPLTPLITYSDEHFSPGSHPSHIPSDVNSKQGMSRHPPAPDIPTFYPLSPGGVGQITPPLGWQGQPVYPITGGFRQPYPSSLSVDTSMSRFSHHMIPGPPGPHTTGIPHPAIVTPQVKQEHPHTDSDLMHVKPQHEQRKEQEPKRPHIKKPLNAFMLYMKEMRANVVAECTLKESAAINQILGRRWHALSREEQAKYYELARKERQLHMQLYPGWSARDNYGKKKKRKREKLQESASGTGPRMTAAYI
UniProt Q9Y2U8: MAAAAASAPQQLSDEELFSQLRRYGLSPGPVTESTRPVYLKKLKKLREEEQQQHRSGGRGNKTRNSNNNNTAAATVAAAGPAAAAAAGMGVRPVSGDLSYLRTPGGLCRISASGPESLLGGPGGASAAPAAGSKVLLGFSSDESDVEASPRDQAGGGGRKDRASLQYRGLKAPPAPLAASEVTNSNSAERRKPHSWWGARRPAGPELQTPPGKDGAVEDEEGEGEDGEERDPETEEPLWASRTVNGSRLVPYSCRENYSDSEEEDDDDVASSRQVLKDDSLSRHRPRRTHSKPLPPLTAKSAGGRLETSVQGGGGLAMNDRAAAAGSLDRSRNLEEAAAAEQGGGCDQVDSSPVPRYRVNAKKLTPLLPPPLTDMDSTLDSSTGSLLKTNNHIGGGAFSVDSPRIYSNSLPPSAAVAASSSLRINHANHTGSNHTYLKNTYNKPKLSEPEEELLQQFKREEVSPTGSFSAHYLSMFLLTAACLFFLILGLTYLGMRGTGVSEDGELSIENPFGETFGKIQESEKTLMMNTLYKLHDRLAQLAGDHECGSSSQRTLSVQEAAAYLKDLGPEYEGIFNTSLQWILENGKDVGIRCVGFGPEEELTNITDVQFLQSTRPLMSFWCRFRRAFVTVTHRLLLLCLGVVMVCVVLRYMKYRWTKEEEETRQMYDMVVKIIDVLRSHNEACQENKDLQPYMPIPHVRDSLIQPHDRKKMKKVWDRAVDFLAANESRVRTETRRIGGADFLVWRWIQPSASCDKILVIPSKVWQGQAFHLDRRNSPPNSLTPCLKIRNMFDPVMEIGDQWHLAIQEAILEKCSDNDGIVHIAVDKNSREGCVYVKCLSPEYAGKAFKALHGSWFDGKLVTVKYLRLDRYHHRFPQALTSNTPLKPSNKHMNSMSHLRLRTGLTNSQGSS
UniProt Q9UJ70, whole entry: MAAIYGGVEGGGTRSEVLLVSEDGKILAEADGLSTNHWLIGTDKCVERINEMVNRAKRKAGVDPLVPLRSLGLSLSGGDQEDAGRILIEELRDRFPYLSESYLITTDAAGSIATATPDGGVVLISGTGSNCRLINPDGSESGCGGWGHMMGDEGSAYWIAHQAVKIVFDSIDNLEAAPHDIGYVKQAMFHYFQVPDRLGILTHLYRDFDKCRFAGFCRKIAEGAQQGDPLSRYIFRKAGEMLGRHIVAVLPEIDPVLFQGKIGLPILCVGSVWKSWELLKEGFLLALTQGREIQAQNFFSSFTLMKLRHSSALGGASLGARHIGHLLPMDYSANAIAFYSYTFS

Target	NP40-soluble protein abundance
UniProt Q9UI12 and related entries	1 ± 0.028
YARS2 (UniProt Q9Y2Z4)	1.01 ± 0.04
UniProt Q9UP83 and related entries	1.02 ± 0.026
STX8 (UniProt Q9UNK0)	0.995 ± 0.023
NOTCH3 (UniProt Q9UM47)	1 ± 0.019
ZC3H4 (UniProt Q9UPT8)	0.979 ± 0.035
YBX2 (UniProt Q9Y2T7)	0.996 ± 0.013
VPS51 (UniProt Q9UID3)	1.02 ± 0.031
UniProt Q9UJX6 and related entries	1.03 ± 0.044
TBK1 (UniProt Q9UHD2)	1.01 ± 0.029
PPIL1 (UniProt Q9Y3C6)	0.9952 ± 0.005
PLAA (UniProt Q9Y263)	0.973 ± 0.023
SUGT1 (UniProt Q9Y2Z0)	0.9897 ± 0.0065

Same assay, conditions: concentration: 0.5mM

Target	NP40-soluble protein abundance
TRAF3IP3 (UniProt Q9Y228)	0.992 ± 0.077
UniProt Q9UJ83 and related entries	0.982 ± 0.06
UniProt Q9Y232 and related entries	0.969 ± 0.053
USP24 (UniProt Q9UPU5)	0.964 ± 0.05
FKBPL (UniProt Q9UIM3)	1.01 ± 0.065
NOB1 (UniProt Q9ULX3)	0.992 ± 0.024
ARMCX3 (UniProt Q9UH62)	1.02 ± 0.057
UniProt Q9UDT6 and related entries	1.02 ± 0.06
PA2G4 (UniProt Q9UQ80)	1.02 ± 0.063
DCTN4 (UniProt Q9UJW0)	0.995 ± 0.026
UniProt Q9UIB8 and related entries	0.953 ± 0.02
SLC39A10 (UniProt Q9ULF5)	0.971 ± 0.053
UniProt Q9UL18	1.04 ± 0.011
UniProt Q9UPN7	0.991 ± 0.035
UniProt Q9Y3C4 and related entries	1.02 ± 0.058
UniProt Q9Y259 and related entries	0.993 ± 0.044
UniProt Q9Y2X0-2|Q9Y2X0-3|Q9Y2X0	0.937 ± 0.096
MRPS16 (UniProt Q9Y3D3)	1.02 ± 0.042
UniProt Q9UJU2 and related entries	1.04 ± 0.12

Target	NP40-soluble protein abundance
LEMD3 (UniProt Q9Y2U8)	1 ± 0.055
UniProt Q9ULU4-11|Q9ULU4-19|Q9ULU4-7|A0A087WYS3|Q9ULU4-13|Q9ULU4-22|Q9ULU4-8|Q9ULU4-9	0.986 ± 0.021
UniProt Q9UM21	0.974 ± 0.024
UniProt Q9UKX3	0.996 ± 0.021
NAGK (UniProt Q9UJ70)	0.9974 ± 0.0024
UniProt Q9UPQ9-1|Q9UPQ9 and related entries	0.981 ± 0.046
UniProt Q9UI12 and related entries	0.989 ± 0.016
YARS2 (UniProt Q9Y2Z4)	0.97 ± 0.076
UniProt Q9UP83 and related entries	1.03 ± 0.014
STX8 (UniProt Q9UNK0)	0.9659 ± 0.0082
NOTCH3 (UniProt Q9UM47)	0.989 ± 0.035
ZC3H4 (UniProt Q9UPT8)	1.01 ± 0.04
YBX2 (UniProt Q9Y2T7)	1.01 ± 0.051
VPS51 (UniProt Q9UID3)	1.03 ± 0.069
UniProt Q9UJX6 and related entries	0.978 ± 0.043
TBK1 (UniProt Q9UHD2)	0.994 ± 0.041
PPIL1 (UniProt Q9Y3C6)	1.02 ± 0.048
PLAA (UniProt Q9Y263)	0.972 ± 0.014
SUGT1 (UniProt Q9Y2Z0)	1.016 ± 0.0097
